Test results: doi:10.1101/2024.03.12.584565
No constants are given. Whether binding was seen depends on the method and setting. In cells and extracts the contact can be indirect. Some binding calls cover weakened binding; strength is not graded here. Where a sequence is shown, tags or fusion partners need not be part of it.

Target: T1, endogenous Rad21 (human (endogenous in HeLaK)) (UniProt O60216)
T1 sequence: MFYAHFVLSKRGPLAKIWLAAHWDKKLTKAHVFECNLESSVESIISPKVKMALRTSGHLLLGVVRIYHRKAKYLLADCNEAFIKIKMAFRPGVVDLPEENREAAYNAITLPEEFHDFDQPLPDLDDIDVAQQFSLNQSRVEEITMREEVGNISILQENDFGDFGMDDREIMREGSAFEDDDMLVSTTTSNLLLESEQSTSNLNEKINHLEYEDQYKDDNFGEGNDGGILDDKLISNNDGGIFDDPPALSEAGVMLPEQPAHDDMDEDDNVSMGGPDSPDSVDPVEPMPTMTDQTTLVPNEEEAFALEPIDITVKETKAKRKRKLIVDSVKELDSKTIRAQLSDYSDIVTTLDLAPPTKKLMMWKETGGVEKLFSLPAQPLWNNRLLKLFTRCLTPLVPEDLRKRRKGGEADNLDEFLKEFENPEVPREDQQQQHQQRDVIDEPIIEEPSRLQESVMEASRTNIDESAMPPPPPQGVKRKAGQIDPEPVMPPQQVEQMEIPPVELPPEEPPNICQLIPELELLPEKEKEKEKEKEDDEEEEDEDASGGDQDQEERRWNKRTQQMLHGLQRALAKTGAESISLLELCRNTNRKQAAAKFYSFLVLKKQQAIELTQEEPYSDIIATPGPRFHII
Assay: co-IP

B1: endogenous Pds5b (protein, UniProt Q9NTI5 1-1447)
chain: MAHSKTRTNDGKITYPPGVKEISDKISKEEMVRRLKMVVKTFMDMDQDSEEEKELYLNLALHLASDFFLKHPDKDVRLLVACCLADIFRIYAPEAPYTSPDKLKDIFMFITRQLKGLEDTKSPQFNRYFYLLENIAWVKSYNICFELEDSNEIFTQLYRTLFSVINNGHNQKVHMHMVDLMSSIICEGDTVSQELLDTVLVNLVPAHKNLNKQAYDLAKALLKRTAQAIEPYITNFFNQVLMLGKTSISDLSEHVFDLILELYNIDSHLLLSVLPQLEFKLKSNDNEERLQVVKLLAKMFGAKDSELASQNKPLWQCYLGRFNDIHVPIRLECVKFASHCLMNHPDLAKDLTEYLKVRSHDPEEAIRHDVIVSIVTAAKKDILLVNDHLLNFVRERTLDKRWRVRKEAMMGLAQIYKKYALQSAAGKDAAKQIAWIKDKLLHIYYQNSIDDRLLVERIFAQYMVPHNLETTERMKCLYYLYATLDLNAVKALNEMWKCQNLLRHQVKDLLDLIKQPKTDASVKAIFSKVMVITRNLPDPGKAQDFMKKFTQVLEDDEKIRKQLEVLVSPTCSCKQAEGCVREITKKLGNPKQPTNPFLEMIKFLLERIAPVHIDTESISALIKQVNKSIDGTADDEDEGVPTDQAIRAGLELLKVLSFTHPISFHSAETFESLLACLKMDDEKVAEAALQIFKNTGSKIEEDFPHIRSALLPVLHHKSKKGPPRQAKYAIHCIHAIFSSKETQFAQIFEPLHKSLDPSNLEHLITPLVTIGHIALLAPDQFAAPLKSLVATFIVKDLLMNDRLPGKKTTKLWVPDEEVSPETMVKIQAIKMMVRWLLGMKNNHSKSGTSTLRLLTTILHSDGDLTEQGKISKPDMSRLRLAAGSAIVKLAQEPCYHEIITLEQYQLCALAINDECYQVRQVFAQKLHKGLSRLRLPLEYMAICALCAKDPVKERRAHARQCLVKNINVRREYLKQHAAVSEKLLSLLPEYVVPYTIHLLAHDPDYVKVQDIEQLKDVKECLWFVLEILMAKNENNSHAFIRKMVENIKQTKDAQGPDDAKMNEKLYTVCDVAMNIIMSKSTTYSLESPKDPVLPARFFTQPDKNFSNTKNYLPPEMKSFFTPGKPKTTNVLGAVNKPLSSAGKQSQTKSSRMETVSNASSSSNPSSPGRIKGRLDSSEMDHSENEDYTMSSPLPGKKSDKRDDSDLVRSELEKPRGRKKTPVTEQEEKLGMDDLTKLVQEQKPKGSQRSRKRGHTASESDEQQWPEEKRLKEDILENEDEQNSPPKKGKRGRPPKPLGGGTPKEEPTMKTSKKGSKKKSGPPAPEEEEEEERQSGNTEQKSKSKQHRVSRRAQQRAESPESSAIESTQSTPQKGRGRPSKTPSPSQPKKNVRVGRSKQAATKENDSSEEVDVFQGSSPVDDIPQEETEEEEVSTVNVRRRSAKRERR
B1 was tested, and the binding was “binds”.

B2: Wild type Pds5b-Flag in HeLaK cells (protein, UniProt Q9NTI5 1-1447)
chain: MAHSKTRTNDGKITYPPGVKEISDKISKEEMVRRLKMVVKTFMDMDQDSEEEKELYLNLALHLASDFFLKHPDKDVRLLVACCLADIFRIYAPEAPYTSPDKLKDIFMFITRQLKGLEDTKSPQFNRYFYLLENIAWVKSYNICFELEDSNEIFTQLYRTLFSVINNGHNQKVHMHMVDLMSSIICEGDTVSQELLDTVLVNLVPAHKNLNKQAYDLAKALLKRTAQAIEPYITNFFNQVLMLGKTSISDLSEHVFDLILELYNIDSHLLLSVLPQLEFKLKSNDNEERLQVVKLLAKMFGAKDSELASQNKPLWQCYLGRFNDIHVPIRLECVKFASHCLMNHPDLAKDLTEYLKVRSHDPEEAIRHDVIVSIVTAAKKDILLVNDHLLNFVRERTLDKRWRVRKEAMMGLAQIYKKYALQSAAGKDAAKQIAWIKDKLLHIYYQNSIDDRLLVERIFAQYMVPHNLETTERMKCLYYLYATLDLNAVKALNEMWKCQNLLRHQVKDLLDLIKQPKTDASVKAIFSKVMVITRNLPDPGKAQDFMKKFTQVLEDDEKIRKQLEVLVSPTCSCKQAEGCVREITKKLGNPKQPTNPFLEMIKFLLERIAPVHIDTESISALIKQVNKSIDGTADDEDEGVPTDQAIRAGLELLKVLSFTHPISFHSAETFESLLACLKMDDEKVAEAALQIFKNTGSKIEEDFPHIRSALLPVLHHKSKKGPPRQAKYAIHCIHAIFSSKETQFAQIFEPLHKSLDPSNLEHLITPLVTIGHIALLAPDQFAAPLKSLVATFIVKDLLMNDRLPGKKTTKLWVPDEEVSPETMVKIQAIKMMVRWLLGMKNNHSKSGTSTLRLLTTILHSDGDLTEQGKISKPDMSRLRLAAGSAIVKLAQEPCYHEIITLEQYQLCALAINDECYQVRQVFAQKLHKGLSRLRLPLEYMAICALCAKDPVKERRAHARQCLVKNINVRREYLKQHAAVSEKLLSLLPEYVVPYTIHLLAHDPDYVKVQDIEQLKDVKECLWFVLEILMAKNENNSHAFIRKMVENIKQTKDAQGPDDAKMNEKLYTVCDVAMNIIMSKSTTYSLESPKDPVLPARFFTQPDKNFSNTKNYLPPEMKSFFTPGKPKTTNVLGAVNKPLSSAGKQSQTKSSRMETVSNASSSSNPSSPGRIKGRLDSSEMDHSENEDYTMSSPLPGKKSDKRDDSDLVRSELEKPRGRKKTPVTEQEEKLGMDDLTKLVQEQKPKGSQRSRKRGHTASESDEQQWPEEKRLKEDILENEDEQNSPPKKGKRGRPPKPLGGGTPKEEPTMKTSKKGSKKKSGPPAPEEEEEEERQSGNTEQKSKSKQHRVSRRAQQRAESPESSAIESTQSTPQKGRGRPSKTPSPSQPKKNVRVGRSKQAATKENDSSEEVDVFQGSSPVDDIPQEETEEEEVSTVNVRRRSAKRERR
In the case of B2, the binding is reported as “binds”.
